From PubChem BioAssay AID493014 (National Center for Advancing Translational Sciences (NCATS), 2011) come the findings set out here.

Molecules are shown by their SMILES. The list shows a part of the results. The main result of the screen is listed elsewhere. These columns were measured beside it and carry no call. Most of these compounds were active or inconclusive in the main read-out, so they are no random draw. Words in brackets tell the shape of the fitted curve; partial curves, single points and poor fits give uncertain potencies.

This experiment can be described thus: qHTS Assay to Find Inhibitors of Chronic Active B-Cell Receptor Signaling. As to conditions: ABC-DLBCL IkBa-CBG/CBR reporter, luminescence ratio (green luciferase fused to IkBa over red control in TMD8 lymphoma cells), 4 h. The procedure, abridged:
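TMD8 ABC-DLBCL cells carrying doxycycline-inducible green luciferase fused to IkappaBalpha plus unfused red luciferase were exposed to compounds (up to 46 uM) for 4 hrs at 37C. Activity came from the overlap-corrected green/red luminescence ratio.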
Background: In qHTS, concentration-response curves come from the screen itself.

Where [1] appears, read: measured here: CBR red luminescence, cell number.
[2] abbreviates: measured here: IkBa-CBG green luminescence.

What is called AC50 is the concentration giving half of the maximal activity seen. For `O=C(CN1C2=NCCN2c2ccccc21)C12CC3CC(CC(C3)C1)C2`, under setting [1], the AC50 was 31.6 µM [falling, single point]. For the compound `Nc1c(Cl)cc(Cl)cc1C(=O)OCC(=O)N1CCCC1`, the AC50 under setting [1] was 29.1 µM [falling, single point]. `COC(=O)c1cc(S(=O)(=O)N2CCCCC2)c[nH]1`: under setting [1], the AC50 is 31.6 µM [rising, single point]. Turning to `O=C1c2ccccc2C(=O)N1CCCCCCc1ccccc1`, the AC50 under setting [1] was 20.6 µM [rising, single point].

Regarding `CCc1nc2ccccc2c(C(=O)OCC(=O)Nc2cccc(S(=O)(=O)N3CCOCC3)c2)c1C`, the half-maximal activity concentration (AC50) is, setting by setting: under setting [1], 11.2 µM [falling, partial curve, poor fit]; under setting [2], 15.8 µM [rising, partial curve, poor fit]. As for `COc1ccccc1C(=O)NCCn1cc(SCC(=O)Nc2cc(C)on2)c2ccccc21`, the AC50 under setting [1] was 29.1 µM [falling, single point]. Consider `Nc1cccc2nc3ccccc3cc12`, for which the half-maximal activity concentration (AC50) is, setting by setting: under setting [1], 2.31 µM [falling, single point]; under setting [2], 8.91 µM [rising, partial curve, poor fit]. On to `CC(C)OC(=O)c1cccnc1SCc1cc(=O)n2ccccc2n1`, for which the half-maximal activity concentration (AC50) under setting [1] was 35.5 µM [falling, single point].

For the compound `COc1ccc(Cc2nnc(NS(=O)(=O)c3ccc(NC(C)=O)cc3)s2)cc1`, the half-maximal activity concentration (AC50) under setting [1] is 35.5 µM [falling, single point].

Take `CC1(C)C=Cc2c(ccc3c2OC[C@H](c2ccc(O)cc2O)C3)O1`: the AC50 under setting [1] was 20.6 µM [rising, partial curve].

As for `O=C(COC(=O)c1ccc(-c2nnc(-c3ccccc3)o2)cc1)c1ccccc1`, under setting [1], the concentration at half-maximal activity (AC50) is 1.03 µM [rising, full curve, poor fit]. For the compound `CCOc1ccc(S(=O)(=O)N2CCC(C(=O)N3CCN(c4ccccc4)CC3)CC2)cc1`, under setting [1], the concentration at half-maximal activity (AC50) was 35.5 µM [falling, single point]. Consider `Cc1ccc(CNC(=O)c2cc3c(C)nc4ccccc4c3o2)cc1`, for which, under setting [1], the AC50 was 29.1 µM [falling, single point]. Turning to `CC(C)SCCCCOc1ccc2ccccc2c1`, the AC50 under setting [1] was 8.91 µM [rising, partial curve]. Turning to `Cc1cc(C)c(S(=O)(=O)N2CCN=C2c2ccccc2)cc1C`, the half-maximal activity concentration (AC50) under setting [1] is 20.6 µM [rising, partial curve, poor fit].

With `CC(Sc1cccc[n+]1[O-])C(=O)Nc1ccc(Oc2ccccc2)cc1` (configuration not stated), the AC50 under setting [1] was 1.41 µM [rising, partial curve, poor fit]. In the case of `CC12c3ccccc3C(c3ccccc31)C1C(=O)N(c3ccncc3)C(=O)C12` (configuration not stated), under setting [2], the half-maximal activity concentration (AC50) was 14.1 µM [rising, partial curve, poor fit]. For the compound `O=C(NC(=S)Nc1cc([N+](=O)[O-])ccc1O)c1cccnc1`, the half-maximal activity concentration (AC50) under setting [1] was 8.91 µM [falling, partial curve]. Still for that read-out and setting: for `Cc1c(/C=N/NC(=O)C(NC(=O)c2ccc3c(c2)OCO3)C(C)C)c2ccccc2n1C` (configuration not stated) the value was 29.1 µM [falling, single point]; for `S=C(Nc1ccc2nc(-c3ccccn3)c(-c3ccccn3)nc2c1)N1CCOCC1`, 35.5 µM [rising, single point]; for `Cc1noc(C)c1COC(=O)c1cc(S(=O)(=O)N2CCOCC2)ccc1F`, 23.1 µM [rising, partial curve, poor fit]. On to `Cc1nc(-c2ccccc2)sc1C(=O)CSc1ccccc1`, for which the concentration at half-maximal activity (AC50) under setting [1] was 9.2 µM [rising, partial curve] and the AC50 under setting [2] was 1.16 µM [rising, full curve, poor fit]. As to `COc1ccc(C2C(O)C(c3c[nH]c4ccccc34)=NN2C(=O)CCl)cc1` (configuration not stated), the AC50 under setting [1] was 10 µM [falling, partial curve]. In the case of `CNC(=S)N/N=C/c1ccccc1Cl`, the half-maximal activity concentration (AC50) under setting [1] was 18.4 µM [rising, partial curve, poor fit]. Consider `O=C(Nc1ncc2c(n1)-c1ccccc1CC2)C1CC1`, for which the AC50 under setting [1] was 20 µM [falling, partial curve, poor fit].

Consider `COc1cc([N+](=O)[O-])c2nccnc2c1`, for which, under setting [1], the half-maximal activity concentration (AC50) was 35.5 µM [rising, single point]. The same measure, in the same setting: to `Cc1ccc(-n2cccc2/C=C2\C(=N)N3N=C(C(C)C)SC3=NC2=O)cc1` belongs 1.78 µM [rising, full curve, poor fit]; to `Cc1cc(=O)n2c(n1)NC(Nc1cccc(C)c1C)=NC2c1ccc(F)cc1` (configuration not stated), 11.2 µM [falling, partial curve, poor fit]; to `CCOc1ccc(NC(=O)c2cccnc2SC)cc1`, 20 µM [falling, partial curve]. Take `Cc1cccc(NC(=S)NNC(=O)CCn2cc(C)cn2)c1`: the AC50 under setting [1] is 7.08 µM [rising, full curve] and the half-maximal activity concentration (AC50) under setting [2] is 7.08 µM [falling, partial curve]. For `O=C(c1ccccc1)n1ccc2ccccc21`, the half-maximal activity concentration (AC50) under setting [1] was 5.01 µM [rising, single point].

`COc1cc(SC)ccc1C(=O)NCCOc1ccccc1Cl`: the AC50 under setting [1] is 3.55 µM [rising, single point]. The same measure, in the same setting: for `CC(=O)N1CCN(C(=O)c2cc(=O)c3ccccc3o2)CC1` the value was 14.1 µM [falling, partial curve, poor fit]; for `CCOc1ccccc1NC(=O)COn1nnc2ccccc21`, 2.06 µM [falling, full curve, poor fit]. With `COc1ccc(OC)c(/C=N/N(C)c2ccccc2)c1`, the AC50 under setting [1] was 4.11 µM [rising, single point].

Regarding `Cc1nc(C)c(-c2csc(Nc3cccc(O)c3)n2)s1`, under setting [1], the AC50 was 1.26 µM [rising, full curve, poor fit]. Take `COc1ccc(CNC(=O)Cc2ccc(NC(=O)C3=C(C)OCCS3)cc2)cc1`: the AC50 under setting [2] is 11.2 µM [falling, partial curve, poor fit]. In the case of `O=C(NCc1ccc2c(c1)OCO2)c1cc([N+](=O)[O-])ccc1N1CCCCC1`, the AC50 under setting [2] is 16.4 µM [falling, partial curve, poor fit].

Regarding `Fc1ccc(-n2nnc(-c3nccs3)n2)cc1`, under setting [1], the AC50 was 35.5 µM [falling, single point]. `COCCn1ccc2c(OCC(=O)Nc3cccc(OC)c3)cccc2c1=O`: under setting [1], the AC50 is 10 µM [falling, partial curve, poor fit]. Still for that read-out and setting: for `Cc1ccc(Cl)cc1N1CCN(C(=O)COc2ccc(S(=O)(=O)NC(C)C)cc2)CC1` the value was 8.2 µM [falling, partial curve, poor fit]; for `O=C(Nc1ccc(Cl)cc1)N1CCN(c2ncccn2)CC1`, 14.1 µM [falling, partial curve, poor fit]. In the case of `Cc1nc2ccccc2n1CC(=O)NN`, under setting [1], the half-maximal activity concentration (AC50) was 22.4 µM [rising, partial curve, poor fit]. Still for that read-out and setting: to `O=C1CCc2cc(S(=O)(=O)NC(Cc3ccccc3)C(=O)NC3CCCCC3)ccc2N1` (configuration not stated) belongs 32.6 µM [falling, single point]; to `Cc1c(O)ccc2c3c(c(=O)oc12)CCC(C)C3` (configuration not stated), 6.31 µM [rising, partial curve, poor fit]; to `CC(=O)c1ccc(S(=O)(=O)Nc2cccc(-c3ccc4nncn4n3)c2)cc1`, 15.8 µM [rising, single point].

For `COc1ccc(NC(=O)C2Cc3cccc(OC)c3O/C2=N\O)cc1` (configuration not stated), under setting [1], the half-maximal activity concentration (AC50) is 8.91 µM [falling, partial curve]. With `N/C(=N\OC(=O)c1cccc(Br)c1)c1ccncc1`, the AC50 under setting [1] was 1.41 µM [rising, partial curve, poor fit]. As to `C/C(CC(=O)Nc1ccc2c(c1)OCCO2)=N\NC(=O)c1ccccc1Cl`, the concentration at half-maximal activity (AC50) under setting [1] is 10 µM [falling, partial curve, poor fit]. Consider `COc1ccc(-c2cc(C(=O)Nc3cccnc3)c3ccccc3n2)cc1OC`, for which the AC50 under setting [1] is 35.5 µM [falling, single point]. In the case of `CCN1CCN(CC(=O)N2N=C(c3cccs3)CC2c2ccc(F)cc2)C(=O)C1=O` (configuration not stated), the AC50 under setting [1] was 8.91 µM [rising, partial curve, poor fit].

Take `CCCNc1nc(C)nc2c1cnn2CCc1ccccc1`: the AC50 under setting [1] is 18.4 µM [falling, single point]. As for `O=C(CC1SC(=O)NC1=O)Oc1ccc(/C=N/NC(=O)c2ccccc2O)cc1` (configuration not stated), the AC50 under setting [1] is 3.55 µM [falling, partial curve]. On to `CC(=O)c1sc(-c2ccccc2)cc1NS(=O)(=O)c1ccccc1`, for which the half-maximal activity concentration (AC50) under setting [1] is 7.08 µM [rising, partial curve, poor fit]. `O=C(COC(=O)Cc1cccc2ccccc12)Nc1ccccc1-c1ccccc1`: the AC50 under setting [1] was 29.1 µM [falling, single point]. On the same count and under the same terms, to `CCOc1cccc2cc(-c3nc4ccc(C(=O)O)cc4[nH]3)c(=O)oc12` belongs 0.0411 µM [falling, full curve]. As to `COc1ccc([N+](=O)[O-])cc1NS(=O)(=O)c1cc(C(=O)O)ccc1OC`, the concentration at half-maximal activity (AC50) under setting [1] is 14.1 µM [falling, partial curve, poor fit]. Turning to `CCc1ccc(NS(=O)(=O)c2ccc3[nH]cc(C(=O)NCC4CCCO4)c(=O)c3c2)cc1` (configuration not stated), the concentration at half-maximal activity (AC50) under setting [1] was 0.794 µM [rising, full curve, poor fit]. Take `Clc1ccc(-c2cc(C3CCNCC3)[nH]n2)c(Cl)c1`: the concentration at half-maximal activity (AC50) under setting [1] is 35.5 µM [falling, single point]. Consider `O=[N+]([O-])c1ccc(O)c(C(C#Cc2ccccc2)N2CCOCC2)c1` (configuration not stated), for which the AC50 under setting [1] was 15.8 µM [falling, single point]. Turning to `Cc1ccc(SCc2nc(-c3ccccc3)no2)cc1`, the AC50 under setting [1] is 0.0731 µM [rising, full curve, poor fit]. For the compound `Cc1cc(S(=O)(=O)Nc2ccc3cn[nH]c3c2)c(C)cc1Cl`, the half-maximal activity concentration (AC50) under setting [1] was 3.16 µM [falling, partial curve, poor fit]. Regarding `NS(=O)(=O)c1ccc(NNC(=O)c2ccc(F)cc2F)cc1`, the half-maximal activity concentration (AC50) under setting [1] was 0.112 µM [falling, full curve, poor fit].
